According to PubChem BioAssay AID1259415 (National Center for Advancing Translational Sciences (NCATS), 2018):
Among all 410,000 compounds or so, about 18,000 (4.4%) were called active. This list was built around the results that the source calls inconclusive (neither active nor inactive); the mix of calls is not that of the screen. Cut-off read from the data, not from the text of the source: active = activity change below about -60%; inconclusive = no clear call, values can overlap the other calls; inactive = above about -39%.

experiment: qHTS Assay for inhibitors of the human cytomegalovirus (HCMV); conditions: HFF cells, HCMV-luciferase reporter, 72 h; at 57.5 µM; active compounds read low
In short: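 HFF cells seeded 16 h at 37C, treated with compounds, infected with luciferase-reporter HCMV at MOI 1 PFU/cell; luciferase read at 72 h post infection, normalized to buffer-only and Salinomycin controls.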
% is set by controls: 0 for no effect and ±100 for the full control effect.

Structure (SMILES) | activity change, negative = inhibition
COc1ccc(CCNC(=O)c2ccc(CSc3ccc(Cl)cc3)o2)cc1OC | inconclusive: -45.9%
COc1ccc(/C=N\n2nnc3ccccc32)cc1 | inactive: -3.44%
COCCn1c(SCC(=O)Nc2ccccc2C)nc2c(oc3ccccc32)c1=O | inconclusive: -44.3%
O=C(NN=C1CCCC1)c1cc(O)cc(O)c1 | inactive: 12.5%
Cc1ccccc1C(=O)N1CCN(c2ccc(NC(=O)c3ccccc3[N+](=O)[O-])cc2)CC1 | inconclusive: -41.1%
COc1ccc(C(=O)Nc2ccc(N3CCC(C)CC3)cc2)cc1Br | inconclusive: -49.8%
COc1cccc(OC)c1C(=O)NC(=S)Nc1cccc(NC(=O)c2ccco2)c1 | active: -61.3%
O=C(NCc1ccccc1)c1cccc(COc2ccc3c(c2)CCC3)c1 | inactive: 148%
O=C(O)c1cn(-c2ccc(F)cc2)c2cc(Cl)c(F)cc2c1=O | active: -60.9%
Cc1cc(C)c(C#N)c(SCc2cn3ccccc3n2)n1 | active: -77.1%
CCCCCCN1CCN(c2ccc(Cl)cc2)CC1 | inconclusive: -50.5%
CN(CC(=O)Nc1cccc(F)c1)C(=O)/C=C/c1cc(Br)ccc1OC(F)F | inconclusive: -44.1%
CCN(c1cccc(C)c1)S(=O)(=O)c1ccc(-c2ccc(=O)[nH]n2)o1 | inconclusive: -49.6%
CCOc1ccc(C2CC(=O)Nc3nc(SCc4ccccc4C)[nH]c(=O)c32)cc1OC (centres undefined) | active: -102%
Cc1nc2ccccc2c(=O)n1/N=C/c1ccc(F)cc1 | inactive: 13.8%
COC(=O)N/N=C(\C)c1cccc(C(F)(F)F)c1 | inactive: 35.8%
COc1ccccc1CNC(=O)N1CCN(S(=O)(=O)c2ccc(Cl)cc2)CC1 | inactive: -14.9%
Cc1nn2c(=O)cc(COC(=O)c3ccc(NC(=O)COc4ccc(C)c(C)c4)cc3)nc2s1 | inactive: -28.3%
CCOc1ccc(NC(=O)CSc2nnc(NC(=O)C3CC3)s2)cc1 | inconclusive: -43.5%
CCCCn1c(=N)n(CCCOc2ccc(F)cc2)c2ccccc21 | active: -66.6%
CC(C)(C)N1CC(C(=O)Nc2ccc(C#N)cc2)CC1=O (centres undefined) | inactive: 16.5%
O=C(c1ccc2c3c(cccc13)CC2)C1CCCN(Cc2ccncc2)C1 (centres undefined) | active: -68.7%
CCn1cc2nc(SCc3cc(C)ccc3C)n(CCc3ccccc3)c(=O)c2n1 | active: -86.4%

Structure (SMILES) | activity change, negative = inhibition
CCCCn1c(=O)c2oc3ccccc3c2n(CC(=O)Nc2ccc(CC)cc2)c1=O | inactive: 25.3%
Cc1ccccc1OCC(O)CNC1CCC(NCC(O)COc2ccccc2C)CC1 (centres undefined) | active: -99.6%
Clc1ccc(-c2nn3c(C4COc5ccccc5O4)nnc3s2)cc1 (centres undefined) | active: -98.9%
O=c1c2cc(Br)ccc2nc(-c2ccc(Cl)cc2)n1O | inconclusive: -48.7%
CSc1ccccc1C(=O)NCCOc1cccc(C)c1 | inconclusive: -50.8%
COc1cc2c(cc1OC)CN(C(=O)Nc1ccccc1)CC2 | inconclusive: -41%
Cn1cc(CN(C(=O)Nc2ccccc2)C2CCCCC2)c2ccccc21 | active: -105%
CC1Cc2nc(SCC(=O)NCCc3ccccc3)n(C)c(=O)c2S1 (centres undefined) | inconclusive: -49.2%
C=CCSc1nnc2c(n1)OC(c1cccnc1)Nc1ccccc1-2 (centres undefined) | inactive: 92.4%
CCOC(=O)[C@@H]1[C@H]2COc3ccc(Br)cc3[C@@H]2N2C(=O)N(c3ccc(C)cc3)C(=O)[C@]12C | inconclusive: -59.2%
C=CCOC(=O)c1cc(-c2ccc(/C=C3\C(=O)NC(=O)C(C#N)=C3C)o2)ccc1Cl | inactive: 1.86%
CC1CCN(CCc2nc3cc(NC(=O)Nc4ccccc4)ccc3n2C)CC1 | inconclusive: -43.1%
Cc1ccc(CNC2CCCCC2)s1 | inactive: -4.64%
CN(C)Cc1csc(NC(=O)Nc2ccccc2Oc2ccccc2)n1 | active: -74.8%
COc1ccc(NC(=O)c2ccc(-c3ccc([N+](=O)[O-])cc3)o2)cc1 | active: -60.8%
O=[N+]([O-])c1cc(Cl)cc(/C=N/NC(=S)Nc2ccc(S(=O)(=O)N3CCOCC3)cc2)c1O | inactive: -24.5%
CCc1cc2ccc(C)cc2nc1SCC(=O)N1CCN(C(=O)c2ccco2)CC1 | inconclusive: -48.8%
O=C(Nc1cccc(NC(=O)C2CC3CCCC(C2)C3=O)n1)C1CC2CCCC(C1)C2=O (centres undefined) | inconclusive: -49.7%
O=C(c1ccc2ccccc2c1)C1CCCN(C(=O)CN2C(=O)CSC2=O)C1 (centres undefined) | active: -67.7%
Cc1cc(C)c2nc(C)cc(N/N=C/c3ccc(O)cc3)c2c1 | active: -99.9%
CCc1ccc2c(c1)NC(=O)C2(C)Cc1cccc(F)c1 (centres undefined) | inconclusive: -43.1%
COc1cc(Br)cc(CN2CCN(C=O)CC2)c1O | inactive: -13.5%
COc1cc2c(cc1OC)CN(Cc1cc(=O)oc3c(C)c(C)ccc13)CC2 | inactive: -32.1%

3 of these compounds, reformatted.

| Structure (SMILES) | activity change, negative = inhibition |
| --- | --- |
| O=C(Nc1cccc(NC(=O)C2CC3CCCC(C2)C3=O)n1)C1CC2CCCC(C1)C2=O (centres undefined) | inconclusive: -49.7% |
| O=C(c1ccc2ccccc2c1)C1CCCN(C(=O)CN2C(=O)CSC2=O)C1 (centres undefined) | active: -67.7% |
| Cc1cc(C)c2nc(C)cc(N/N=C/c3ccc(O)cc3)c2c1 | active: -99.9% |

Later entries:

Structure (SMILES) | activity change, negative = inhibition
COc1ccc(OC)c(NC(=O)COC(=O)C2CCC2)c1 | inconclusive: -42.1%
Cc1cc(N2CCCC2)nc2ccc(NC(=S)NCCCOC(C)C)cc12 | inconclusive: -56.5%
CCOC(=O)n1c(=O)n(Cc2ccccc2C)c2ccccc21 | inconclusive: -51%
CC(C)c1ccc(/C=C2\SC(N3CCOCC3)=NC2=O)cc1 | inconclusive: -59.1%
COc1ccc(OCC(=O)NC2CCCc3ccccc32)cc1 (centres undefined) | inconclusive: -43.6%
O=C(COC(=O)/C=C/c1ccccc1)NC(=O)NCc1ccccc1 | inconclusive: -40.1%
O=C(CN1C(=O)CCC1=O)Nc1nc(-c2ccccn2)cs1 | active: -61.9%
COc1ccc(-n2ncc3c(=O)n(CC(=O)N4CCCc5ccccc54)cnc32)cc1 | inconclusive: -57%
Cc1ccc(-c2nnnn2CS(=O)(=O)c2ccccc2)cc1 | inactive: 4.02%
CCC1=[N+](CC(=O)c2ccc(C)cc2)CCn2cccc21 | inactive: 3.15%
COc1cc(OC)c(S(=O)(=O)NC(C)C)cc1C(=O)O | inactive: -1.73%
Nc1nn(-c2ccccc2)nc1C(=O)OCc1ccc(Cl)cc1 | inactive: -1.46%
CCn1c2ccccc2c2cc(NC(=O)CSc3nnc(-c4cccc(Cl)c4)o3)ccc21 | inactive: 51.8%
Cc1csc2nc(=O)c3ccccc3n12 | inconclusive: -41.2%
CC1CCCN(S(=O)(=O)c2cccc3nonc23)C1 (centres undefined) | inconclusive: -56.9%
Cn1c(=O)n(Cc2c(F)cccc2Cl)c(=O)c2c1nc1n2CCN1c1ccc(F)cc1 | inactive: 17.8%
COc1ccc2oc(C(=O)N3CCN(C(c4ccccc4)c4ccccc4)CC3)c(C)c2c1 | inconclusive: -43%
Cc1ccc(N2C(=O)c3ccc(C(=O)N4CCN(c5ccc(C)c(C)c5)CC4)cc3C2=O)cc1 | active: -70.4%
COC(=O)C1=C(c2ccc(OCc3ccccc3)cc2)C[C@@H]2CC[C@H]1N2C(=O)NCCCc1ccccc1 | inconclusive: -49.6%
COc1ccc(C2=C(N3CCN(c4cccc(C)c4C)CC3)c3ccccc3C2=O)cc1 | inactive: 37.1%
O=C(Nc1cc(C(F)(F)F)ccc1Cl)c1cc2nc3c(c(C(F)(F)F)n2n1)CCCC3 | inconclusive: -55.6%
Cc1ccccc1Cc1ccc(Cl)nn1 | inconclusive: -52.5%
O=C(Oc1ccccc1)N1CCN(c2ccccc2F)CC1 | inconclusive: -43.8%

Structure (SMILES) | activity change, negative = inhibition
O=C(Nc1cccc(Cl)c1)C1C2C=CC3(O2)C1C(=O)N(CCCN1CCCCC1)C3C(=O)NC1CCCCC1 (centres undefined) | inconclusive: -42.8%
O=C(/C=C/c1cccc([N+](=O)[O-])c1)OC1CCCCC1=O (centres undefined) | inconclusive: -53.3%
COC(=O)[C@@H](NCc1cccc(CN([C@H](C(=O)OC)C(C)C)S(C)(=O)=O)c1)C(C)C | inconclusive: -45%
CC(=O)NCCOc1nc(N2CCCCC2)nc(N2CCCCC2)n1 | inconclusive: -47%
CCCN(CCC)c1ccc(C2N=C(N)Nc3nc4ccccc4n32)cc1 (centres undefined) | inconclusive: -54.5%
Cc1ccc(Cn2c(SCCN3CCCCC3)nc3c2c(=O)n(C)c(=O)n3C)cc1 | active: -100%
Cc1ccc(C(=O)Cc2ccccc2)o1 | inconclusive: -43.5%
COc1ccccc1NC(=O)N1CCN(C)CC1 | inconclusive: -47.9%
Cc1c(C(=O)NCc2ccccc2Cl)sc2ncnc(N(C)C3CCCCC3)c12 | inconclusive: -41.8%
CCCNC(=O)C1CCN(S(=O)(=O)c2ccc3[nH]c(=O)ccc3c2)CC1 | inconclusive: -56.9%
O=C(Nc1ccncc1)c1cc(C2CCCCN2C(=O)CCCc2ccccc2)on1 (centres undefined) | inconclusive: -50.4%
Cc1ccc(NC(=O)CN2C(=O)c3cccnc3Oc3ccc(Cl)cc32)cc1 | inactive: 0%
O=C(NCc1ccc2c(c1)CCN2C(=O)c1ccccc1)Nc1cccc(C(F)(F)F)c1 | active: -97.4%
Cc1cc(C(=O)CSc2nnc(-c3ccc(F)cc3)o2)c(C)n1CC1CCCO1 (centres undefined) | inconclusive: -54.1%
O=c1cc2c(nn1Cc1ccc(F)cc1)-c1ccccc1CC2 | inconclusive: -51.5%
N#C/C(=C\c1ccc(N2CCOCC2)o1)C(=O)NCCc1ccccc1 | inconclusive: -49%
CCC1Oc2ccccc2N(CC(=O)NCCc2ccc(OC)c(OC)c2)C1=O (centres undefined) | inconclusive: -47.2%
COc1cc(OC)c(NC(=O)N2CCc3cc(S(=O)(=O)N4CCC(C)CC4)ccc32)cc1Cl | inconclusive: -46.5%
O=C(CC1SC(=O)N(Cc2cccc3ccccc23)C1=O)Nc1nccs1 (centres undefined) | inconclusive: -58.4%
Cc1cc(C)cc(NC(=O)c2cc(S(=O)(=O)N3CCCC3)ccc2F)c1 | inactive: -39%
